These are yes or no findings as the source states them, for the method shown. Some results given as binding are weak or reduced against the parent protein; the word gives no strength. For some assays here: Where a sequence is shown, tags or fusion partners need not be part of it.

Sequences of proteins named here, by UniProt entry; tags and fusion partners are left off. Residues count along the entry.
UniProt P05113, residues 20-134: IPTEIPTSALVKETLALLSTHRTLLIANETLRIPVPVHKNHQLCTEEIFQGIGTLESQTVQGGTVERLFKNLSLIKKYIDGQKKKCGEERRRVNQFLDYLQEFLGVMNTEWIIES

The target in test [1] is T1, 可溶性IL-5RαFc (soluble IL-5 receptor alpha chain Fc fusion) (UniProt Q01344).
T1 sequence (looked up): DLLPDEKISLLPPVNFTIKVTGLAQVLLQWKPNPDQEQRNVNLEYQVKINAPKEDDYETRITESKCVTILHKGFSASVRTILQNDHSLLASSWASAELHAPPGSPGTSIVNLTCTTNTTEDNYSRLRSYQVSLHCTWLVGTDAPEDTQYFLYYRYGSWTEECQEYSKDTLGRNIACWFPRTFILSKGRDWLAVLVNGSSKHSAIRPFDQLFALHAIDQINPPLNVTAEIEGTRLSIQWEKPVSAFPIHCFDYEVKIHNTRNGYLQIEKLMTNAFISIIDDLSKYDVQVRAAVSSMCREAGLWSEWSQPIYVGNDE
As to the kind of experiment: BIAcore: IL-5Ra-Fc captured on protein A, IL-5 injected.

Test [2] deals with 組換えヒトIL-5 (recombinant human interleukin-5) (human) (UniProt P05113). Description: BIAcore: hIL-5 immobilised, IL-5Rα injected (20 μl, 90 nM) with or without prebound 4A6. A general note: In SPR one partner is held on a chip, and binding of the other changes the refractive index at the surface.

Regarding “組換えヒトIL-5 (recombinant human interleukin-5) (from UniProt P05113 20-134) (ligand)”, the binding entry in test [1] was “binds”.

B1: 可溶性IL-5レセプターα鎖 (soluble IL-5 receptor alpha chain) (receptor, UniProt Q01344 21-335, looked up)
chain: DLLPDEKISLLPPVNFTIKVTGLAQVLLQWKPNPDQEQRNVNLEYQVKINAPKEDDYETRITESKCVTILHKGFSASVRTILQNDHSLLASSWASAELHAPPGSPGTSIVNLTCTTNTTEDNYSRLRSYQVSLHCTWLVGTDAPEDTQYFLYYRYGSWTEECQEYSKDTLGRNIACWFPRTFILSKGRDWLAVLVNGSSKHSAIRPFDQLFALHAIDQINPPLNVTAEIEGTRLSIQWEKPVSAFPIHCFDYEVKIHNTRNGYLQIEKLMTNAFISIIDDLSKYDVQVRAAVSSMCREAGLWSEWSQPIYVGNDE
As to B1, the binding result in test [2] is listed as “binds”.

The record behind these values is patent JP2000515494A.
